Results are given in words; binding and its absence hold for the method and conditions named. Binding seen in cells or lysates may run through a third protein. Some results given as binding are weak or reduced against the parent protein; the word gives no strength. Sequences can lack the tags named with a protein. Each block holds one binder with its values, some of them ahead of it.
What was measured:
[1] = biological target: N-terminally truncated ABCB6–core (206–ABCB6–core), HA- and FLAG-tagged copies (human) (UniProt Q9NP58); test: co-IP; HA- and FLAG-tagged ABCB6 variants transiently co-expressed in HeLa cells; lysis in 45 mM Tris, 135 mM NaCl, 0.5% NP-40, 10 mM NEM; anti-FLAG antibody on Protein A/G agarose beads; eluate blotted with anti-HA
[2] = biological target: full-length human ABCB6 (ABCB6–HA and ABCB6–FLAG, co-expressed) (human) (UniProt Q9NP58); test: as above

binding [1]: binds
B1: N-terminally truncated ABCB6–core (206–ABCB6–core), HA- and FLAG-tagged copies (domain or fragment, UniProt Q9NP58-1 206-842)
chain: APGLRPQSYTLQVHEEDQDVERSQVRSAAQQSTWRDFGRKLRLLSGYLWPRGSPALQLVVLICLGLMGLERALNVLVPIFYRNIVNLLTEKAPWNSLAWTVTSYVFLKFLQGGGTGSTGFVSNLRTFLWIRVQQFTSRRVELLIFSHLHELSLRWHLGRRTGEVLRIADRGTSSVTGLLSYLVFNVIPTLADIIIGIIYFSMFFNAWFGLIVFLCMSLYLTLTIVVTEWRTKFRRAMNTQENATRARAVDSLLNFETVKYYNAESYEVERYREAIIKYQGLEWKSSASLVLLNQTQNLVIGLGLLAGSLLCAYFVTEQKLQVGDYVLFGTYIIQLYMPLNWFGTYYRMIQTNFIDMENMFDLLKEETEVKDLPGAGPLRFQKGRIEFENVHFSYADGRETLQDVSFTVMPGQTLALVGPSGAGKSTILRLLFRFYDISSGCIRIDGQDISQVTQASLRSHIGVVPQDTVLFNDTIADNIRYGRVTAGNDEVEAAAQAAGIHDAIMAFPEGYRTQVGERGLKLSGGEKQRVAIARTILKAPGIILLDEATSALDTSNERAIQASLAKVCANRTTIVVAHRLSTVVNADQILVIKDGCIVERGRHEALLSRGGVYADMWQLQQGQEETSEDTKPQTMER

binding [2]: binds
B2: full-length human ABCB6 (ABCB6–HA and ABCB6–FLAG, co-expressed) (protein, UniProt Q9NP58-1 1-842)
chain: MVTVGNYCEAEGPVGPAWMQDGLSPCFFFTLVPSTRMALGTLALVLALPCRRRERPAGADSLSWGAGPRISPYVLQLLLATLQAALPLAGLAGRVGTARGAPLPSYLLLASVLESLAGACGLWLLVVERSQARQRLAMGIWIKFRHSPGLLLLWTVAFAAENLALVSWNSPQWWWARADLGQQVQFSLWVLRYVVSGGLFVLGLWAPGLRPQSYTLQVHEEDQDVERSQVRSAAQQSTWRDFGRKLRLLSGYLWPRGSPALQLVVLICLGLMGLERALNVLVPIFYRNIVNLLTEKAPWNSLAWTVTSYVFLKFLQGGGTGSTGFVSNLRTFLWIRVQQFTSRRVELLIFSHLHELSLRWHLGRRTGEVLRIADRGTSSVTGLLSYLVFNVIPTLADIIIGIIYFSMFFNAWFGLIVFLCMSLYLTLTIVVTEWRTKFRRAMNTQENATRARAVDSLLNFETVKYYNAESYEVERYREAIIKYQGLEWKSSASLVLLNQTQNLVIGLGLLAGSLLCAYFVTEQKLQVGDYVLFGTYIIQLYMPLNWFGTYYRMIQTNFIDMENMFDLLKEETEVKDLPGAGPLRFQKGRIEFENVHFSYADGRETLQDVSFTVMPGQTLALVGPSGAGKSTILRLLFRFYDISSGCIRIDGQDISQVTQASLRSHIGVVPQDTVLFNDTIADNIRYGRVTAGNDEVEAAAQAAGIHDAIMAFPEGYRTQVGERGLKLSGGEKQRVAIARTILKAPGIILLDEATSALDTSNERAIQASLAKVCANRTTIVVAHRLSTVVNADQILVIKDGCIVERGRHEALLSRGGVYADMWQLQQGQEETSEDTKPQTMER

From article PMC4410673
